Reference: PubChem BioAssay AID1224828 (NIAID, 2016)

Aim: 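Find genes required for NF-kappaB p65 moving into the nucleus after LPS in mouse macrophages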 (primary screen)
System: mouse RAW264.7 G9 macrophage reporter cells (GFP-p65, Tnf promoter-mCherry)
Knock-down reagent: siRNA pool against mouse genes, 100 nM
Timing: 2 days siRNA transfection, then 40 min LPS before fixation
Conditions: LPS (Salmonella minnesota R595) at 10 ng/ml
Detection: 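Imaged p65 nuclear translocation ratio, normalised to the plate median, converted to robust z-scores and averaged across two replicates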
Reading the numbers: p65 translocation robust z-score: higher = more nuclear NF-kappaB p65 after LPS than the plate median; nuclear/cytoplasmic p65 ratio: higher = more nuclear NF-kappaB p65
Hit rule: 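Active if robust z is above 3.3 (negative regulators) or below -1.56, the Tlr4 control median (positive regulators); activity score 50 or more; control wells not called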
Meaning of the calls: active = hit (p65 shift raised or lowered); inactive = no clear change
Shown is a random part of about 17,000 reagents tested. 762 of all reagents (4.5%) count as active. 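Active calls include both raised and lowered p65 entry, mostly lowered; wells with fewer than 50 cells lack a z-score.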 Raw values vary from plate to plate and are shown uncorrected.

| gene | p65 translocation robust z-score | nuclear/cytoplasmic p65 ratio, rep 1 | nuclear/cytoplasmic p65 ratio, rep 2 | low cell count flag | Outcome |
| --- | --- | --- | --- | --- | --- |
| Baz1a | 0.67 | 1.71 | 1.92 | enough cells to score | inactive |
| Col16a1 | 0.9 | 1.62 | 1.47 | enough cells to score | inactive |
| P4htm | -0.1 | 1.59 | 1.61 | enough cells to score | inactive |
| Sox21 | 0.04 | 1.47 | 1.2 | enough cells to score | inactive |
| Mucl1 | 0.29 | 1.46 | 1.27 | enough cells to score | inactive |
| Foxa2 | 0.76 | 1.56 | 1.44 | enough cells to score | inactive |
| Ap1m1 | -1.06 | 1.41 | 1.56 | enough cells to score | inactive |
| Or51b17 | – | 1.37 | 1.51 | fewer than 50 cells per well; well left out of scoring | inactive |
| Pacsin2 | – | 1.35 | 1.2 | fewer than 50 cells per well; well left out of scoring | inactive |
| Ctnnbip1 | 1.28 | 1.49 | 1.54 | enough cells to score | inactive |
| Or14j2 | – | 1.55 | 1.3 | fewer than 50 cells per well; well left out of scoring | inactive |
| 4930412M03Rik | – | 1.08 | 1.27 | fewer than 50 cells per well; well left out of scoring | inactive |
| E2f7 | 0.15 | 1.59 | 1.28 | enough cells to score | inactive |
| Hmgb4 | – | 1.35 | 1.78 | fewer than 50 cells per well; well left out of scoring | inactive |
| Iqcf4 | -0.38 | 1.2 | 1.37 | enough cells to score | inactive |
| Insl5 | -0.45 | 1.45 | 1.29 | enough cells to score | inactive |
| Rfk | -1.9 | 1.36 | 1.16 | enough cells to score | active |
| Rnd3 | 1.52 | 1.78 | 1.68 | enough cells to score | inactive |
| 4930433I11Rik | – | 1.16 | 1.58 | fewer than 50 cells per well; well left out of scoring | inactive |
| Flt1 | 0.37 | 1.74 | 1.44 | enough cells to score | inactive |
| Or2w6 | 1.03 | 1.53 | 1.56 | enough cells to score | inactive |
| 4933427D06Rik | 1.32 | 1.31 | 1.64 | enough cells to score | inactive |
| E130006D01Rik | 1.64 | 1.65 | 1.61 | enough cells to score | inactive |
| Pxt1 | -0.49 | 1.28 | 1.41 | enough cells to score | inactive |
| Aqp5 | -1.18 | 1.47 | 1.41 | enough cells to score | inactive |

Called active, of those listed so far:
| gene | p65 translocation robust z-score | nuclear/cytoplasmic p65 ratio, rep 1 | nuclear/cytoplasmic p65 ratio, rep 2 | low cell count flag | Outcome |
| --- | --- | --- | --- | --- | --- |
| Rfk | -1.9 | 1.36 | 1.16 | enough cells to score | active |

Additional results follow.
| gene | p65 translocation robust z-score | nuclear/cytoplasmic p65 ratio, rep 1 | nuclear/cytoplasmic p65 ratio, rep 2 | low cell count flag | Outcome |
| --- | --- | --- | --- | --- | --- |
| Cdh13 | -1.15 | 1.37 | 1.18 | enough cells to score | inactive |
| Ak3 | -0.64 | 1.51 | 1.36 | enough cells to score | inactive |
| Tnfrsf1a | – | 1.49 | 1.45 | fewer than 50 cells per well; well left out of scoring | inactive |
| Akip1 | – | 1.45 | 1.21 | fewer than 50 cells per well; well left out of scoring | inactive |
| G6pd2 | -2.28 | 1.28 | 1.13 | enough cells to score | active |
| Pms1 | 0.28 | 1.55 | 1.43 | enough cells to score | inactive |
| Cldn1 | -2.02 | 1.22 | 1.12 | enough cells to score | active |
| Lrit1 | -0.36 | 1.67 | 1.48 | enough cells to score | inactive |
| Klra19 | -1.47 | 1.26 | 1.2 | enough cells to score | inactive |
| A630091E08Rik | 0.35 | 1.44 | 1.58 | enough cells to score | inactive |
| 2210408I21Rik | – | 1.25 | 1.25 | fewer than 50 cells per well; well left out of scoring | inactive |
| Podxl | – | 1.57 | 1.51 | fewer than 50 cells per well; well left out of scoring | inactive |
| Trp53inp2 | 0.76 | 1.61 | 1.58 | enough cells to score | inactive |
| Dscam | – | 1.48 | 1.38 | fewer than 50 cells per well; well left out of scoring | inactive |
| Zar1 | 1.3 | 1.5 | 1.4 | enough cells to score | inactive |
| Or2t46 | -2.66 | 1.17 | 1.11 | enough cells to score | active |
| Myl2 | -0.24 | 1.4 | 1.32 | enough cells to score | inactive |
| Zfp423 | -0.17 | 1.4 | 1.56 | enough cells to score | inactive |
| Tsga8 | – | 1.18 | 1.23 | fewer than 50 cells per well; well left out of scoring | inactive |
| Lage3 | – | 1.23 | 1.31 | fewer than 50 cells per well; well left out of scoring | inactive |
| Sfrp2 | -1.29 | 1.35 | 1.39 | enough cells to score | inactive |
| Dhrs7 | 0.53 | 1.64 | 1.63 | enough cells to score | inactive |
| Il10rb | 1.4 | 1.63 | 1.54 | enough cells to score | inactive |
| Vmn1r174 | 0.91 | 1.56 | 1.29 | enough cells to score | inactive |
| Ccdc88b | – | 1.19 | 1.39 | fewer than 50 cells per well; well left out of scoring | inactive |
| Rps6ka5 | 0.94 | 1.84 | 1.49 | enough cells to score | inactive |
| Rab39a | 0.03 | 1.23 | 1.22 | enough cells to score | inactive |
| Foxn3 | 0.11 | 1.69 | 1.58 | enough cells to score | inactive |
| Ubxn10 | -0.39 | 1.25 | 1.26 | enough cells to score | inactive |
| Yae1d1 | 0.83 | 1.78 | 1.45 | enough cells to score | inactive |
| Cdk5r2 | -1.69 | 1.43 | 1.17 | enough cells to score | active |
| Lnpk | 1.01 | 1.76 | 1.79 | enough cells to score | inactive |
| Grcc10 | – | 1.42 | 1.32 | fewer than 50 cells per well; well left out of scoring | inactive |
| Nfix | -0.34 | 1.47 | 1.31 | enough cells to score | inactive |
